Data on four molecules can be found in publication PMC5931557.

Positions count from the first letter of the chain named. Numbers in names are those of the source. Results are given in words; binding and its absence hold for the method and conditions named. For part of these data: In cells and extracts the contact can be indirect. Some entries that bind do so weakly or less than the wild type. For part of these data: Where a sequence is shown, tags or fusion partners need not be part of it.

For assay [1], the target named is wild-type (WT) mTRAIL-R, transiently overexpressed (mouse) (UniProt Q9QZM4). Put plainly: non-reducing SDS-PAGE and immunoblot; lysates of Trail-R-/- MEFs transiently transfected for 24 h with 300 or 600 ng pcDNA3 plasmid, immunoblot for mTRAIL-R in reducing vs non-reducing conditions. (A western blot detects proteins with antibodies after separation by electrophoresis.)

Assay [2] concerns the target N-glycosylated mouse TRAIL receptor (mTRAIL-R), endogenous in MEFs (mouse (endogenous in MEFs)) (UniProt Q9QZM4). The experiment in a line: non-reducing SDS-PAGE and immunoblot; high molecular weight forms of mTRAIL-R in the streptavidin pull-down of Biot-ILZ hTRAIL from MEFs (tunicamycin or control), non-reducing conditions.
In assay [3] the target is T1, Fas-associated death domain (FADD), endogenous in MEFs (mouse (endogenous in MEFs)) (UniProt Q61160).
T1 sequence: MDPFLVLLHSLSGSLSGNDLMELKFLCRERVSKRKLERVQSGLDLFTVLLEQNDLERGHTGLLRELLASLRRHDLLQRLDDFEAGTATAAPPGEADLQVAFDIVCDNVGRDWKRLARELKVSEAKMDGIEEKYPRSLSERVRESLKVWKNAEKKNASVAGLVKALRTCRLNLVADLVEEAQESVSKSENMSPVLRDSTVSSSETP
Put plainly: pull-down; same streptavidin pull-down of Biot-ILZ hTRAIL-bound complexes from MEFs (tunicamycin or control 7 h), read for FADD found with the receptor.

Assay [4] addresses T1, Fas-associated death domain (FADD), endogenous in MEFs (mouse (endogenous in MEFs)). Put plainly: co-IP; MEFs treated with tunicamycin or control for 7 h, then mTRAIL-SK (20 ng/ml) or control for 2 h; lysis in 10 mM Tris-HCl pH 7.5, 150 mM NaCl, 1% NP-40, 10% glycerol; endogenous FADD immunoprecipitated overnight at 4 °C; mTRAIL-R detected in non-reducing conditions.
In assay [5] the target is non-N-glycosylated mouse TRAIL receptor (mTRAIL-R), endogenous in tunicamycin-treated MEFs (mouse (endogenous in MEFs)) (UniProt Q9QZM4). The experiment in a line: non-reducing SDS-PAGE and immunoblot; high molecular weight forms of mTRAIL-R in the streptavidin pull-down of Biot-ILZ hTRAIL from MEFs (tunicamycin or control), non-reducing conditions.
Assay [6] concerns the target N99/N122/N150Q mTRAIL-R mutant, transiently overexpressed (mouse) (UniProt Q9QZM4). Put plainly: non-reducing SDS-PAGE and immunoblot; lysates of Trail-R-/- MEFs transiently transfected for 24 h with 300 or 600 ng pcDNA3 plasmid, immunoblot for mTRAIL-R in reducing vs non-reducing conditions.

B1: wild-type (WT) mTRAIL-R, transiently overexpressed (receptor, UniProt Q9QZM4 53-381)
chain: NPAHNRPAGLQRPEESPSRGPCLAGQYLSEGNCKPCREGIDYTSHSNHSLDSCILCTVCKEDKVVETRCNITTNTVCRCKPGTFEDKDSPEICQSCSNCTDGEEELTSCTPRENRKCVSKTAWASWHKLGLWIGLLVPVVLLIGALLVWKTGAWRQWLLCIKRGCERDPESANSVHSSLLDRQTSSTTNDSNHNTEPGKTQKTGKKLLVPVNGNDSADDLKFIFEYCSDIVPFDSWNRLMRQLGLTDNQIQMVKAETLVTREALYQMLLKWRHQTGRSASINHLLDALEAVEERDAMEKIEDYAVKSGRFTYQNAAAQPETGPGGSQCV
modifications: N-glycosylated on N99, N122 and N150
Take B1: the binding entry in assay [1] was “binds”.

B2: N-glycosylated mouse TRAIL receptor (mTRAIL-R), endogenous in MEFs (receptor, UniProt Q9QZM4 53-381)
chain: B1 chain
modifications: N-glycosylated on N99, N122 and N150
Regarding B2, the binding entry in assay [2] is “binds”.

B3: non-N-glycosylated mouse TRAIL receptor (mTRAIL-R), endogenous in tunicamycin-treated MEFs (receptor, UniProt Q9QZM4 53-381)
chain: B1 chain
Regarding B3, the binding result in assay [3], in assay [4] and in assay [5] was “binds” each time.

B4: N99/N122/N150Q mTRAIL-R mutant, transiently overexpressed (receptor, UniProt Q9QZM4 53-381)
chain: B1 chain with N47Q, N70Q, N98Q
In the case of B4, the binding result in assay [6] is listed as “binds”.
